Measured values: publication PMC12574921
Results are given in words; binding and its absence hold for the method and conditions named. Binding seen in cells or lysates may run through a third protein. Some results given as binding are weak or reduced against the parent protein; the word gives no strength. For some of these results: Tags and fused reporters may be left off the sequences shown. Each block holds one molecule with its values, some of them ahead of it.

Chains of the proteins cited; added tags and fusions are not shown.
UniProt P17844: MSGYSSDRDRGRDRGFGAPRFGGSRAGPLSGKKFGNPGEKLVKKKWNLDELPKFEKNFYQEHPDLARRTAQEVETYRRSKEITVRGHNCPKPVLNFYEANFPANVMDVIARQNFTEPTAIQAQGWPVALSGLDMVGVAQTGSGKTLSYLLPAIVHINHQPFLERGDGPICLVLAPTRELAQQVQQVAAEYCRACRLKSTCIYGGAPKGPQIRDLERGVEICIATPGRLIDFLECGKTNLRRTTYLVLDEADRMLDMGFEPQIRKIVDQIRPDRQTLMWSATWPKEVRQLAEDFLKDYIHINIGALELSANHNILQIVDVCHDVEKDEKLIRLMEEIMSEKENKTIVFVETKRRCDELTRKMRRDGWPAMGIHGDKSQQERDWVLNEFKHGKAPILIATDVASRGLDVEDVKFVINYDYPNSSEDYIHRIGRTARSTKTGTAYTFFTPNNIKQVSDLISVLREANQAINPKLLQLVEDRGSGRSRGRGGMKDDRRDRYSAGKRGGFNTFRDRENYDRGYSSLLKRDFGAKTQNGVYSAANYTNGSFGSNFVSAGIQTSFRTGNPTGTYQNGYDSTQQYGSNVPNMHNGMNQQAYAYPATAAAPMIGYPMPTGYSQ
UniProt P51114: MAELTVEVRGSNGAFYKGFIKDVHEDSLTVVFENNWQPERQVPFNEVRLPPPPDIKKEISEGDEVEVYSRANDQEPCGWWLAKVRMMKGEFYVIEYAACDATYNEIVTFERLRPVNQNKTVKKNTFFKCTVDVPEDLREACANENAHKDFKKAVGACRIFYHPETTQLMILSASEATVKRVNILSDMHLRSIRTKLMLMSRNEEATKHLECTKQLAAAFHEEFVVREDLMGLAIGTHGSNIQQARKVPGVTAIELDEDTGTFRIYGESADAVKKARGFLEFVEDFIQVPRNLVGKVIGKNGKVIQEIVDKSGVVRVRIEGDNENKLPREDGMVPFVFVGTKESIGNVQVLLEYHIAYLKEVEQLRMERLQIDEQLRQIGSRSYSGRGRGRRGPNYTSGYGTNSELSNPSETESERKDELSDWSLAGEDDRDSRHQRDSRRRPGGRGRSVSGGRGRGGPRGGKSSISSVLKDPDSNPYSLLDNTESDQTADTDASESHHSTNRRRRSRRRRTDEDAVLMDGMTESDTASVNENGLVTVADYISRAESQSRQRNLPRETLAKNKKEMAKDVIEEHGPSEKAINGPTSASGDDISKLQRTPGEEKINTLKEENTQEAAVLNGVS
UniProt P51116: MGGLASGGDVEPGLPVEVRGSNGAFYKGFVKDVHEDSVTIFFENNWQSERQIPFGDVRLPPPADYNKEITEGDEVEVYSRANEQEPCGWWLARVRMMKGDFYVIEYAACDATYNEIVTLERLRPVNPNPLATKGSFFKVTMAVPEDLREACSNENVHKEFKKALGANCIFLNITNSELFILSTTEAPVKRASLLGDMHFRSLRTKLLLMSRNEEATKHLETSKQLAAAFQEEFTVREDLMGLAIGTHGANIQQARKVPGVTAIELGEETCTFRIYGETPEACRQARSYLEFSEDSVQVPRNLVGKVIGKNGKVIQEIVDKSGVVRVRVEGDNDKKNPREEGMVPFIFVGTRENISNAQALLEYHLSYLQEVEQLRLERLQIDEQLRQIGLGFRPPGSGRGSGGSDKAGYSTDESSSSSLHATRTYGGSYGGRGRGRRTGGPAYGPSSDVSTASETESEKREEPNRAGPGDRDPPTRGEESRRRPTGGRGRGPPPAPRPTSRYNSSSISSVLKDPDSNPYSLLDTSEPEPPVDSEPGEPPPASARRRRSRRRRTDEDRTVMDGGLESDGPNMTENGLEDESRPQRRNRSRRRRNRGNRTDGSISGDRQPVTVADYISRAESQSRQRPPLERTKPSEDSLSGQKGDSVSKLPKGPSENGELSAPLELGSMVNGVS
UniProt Q92841: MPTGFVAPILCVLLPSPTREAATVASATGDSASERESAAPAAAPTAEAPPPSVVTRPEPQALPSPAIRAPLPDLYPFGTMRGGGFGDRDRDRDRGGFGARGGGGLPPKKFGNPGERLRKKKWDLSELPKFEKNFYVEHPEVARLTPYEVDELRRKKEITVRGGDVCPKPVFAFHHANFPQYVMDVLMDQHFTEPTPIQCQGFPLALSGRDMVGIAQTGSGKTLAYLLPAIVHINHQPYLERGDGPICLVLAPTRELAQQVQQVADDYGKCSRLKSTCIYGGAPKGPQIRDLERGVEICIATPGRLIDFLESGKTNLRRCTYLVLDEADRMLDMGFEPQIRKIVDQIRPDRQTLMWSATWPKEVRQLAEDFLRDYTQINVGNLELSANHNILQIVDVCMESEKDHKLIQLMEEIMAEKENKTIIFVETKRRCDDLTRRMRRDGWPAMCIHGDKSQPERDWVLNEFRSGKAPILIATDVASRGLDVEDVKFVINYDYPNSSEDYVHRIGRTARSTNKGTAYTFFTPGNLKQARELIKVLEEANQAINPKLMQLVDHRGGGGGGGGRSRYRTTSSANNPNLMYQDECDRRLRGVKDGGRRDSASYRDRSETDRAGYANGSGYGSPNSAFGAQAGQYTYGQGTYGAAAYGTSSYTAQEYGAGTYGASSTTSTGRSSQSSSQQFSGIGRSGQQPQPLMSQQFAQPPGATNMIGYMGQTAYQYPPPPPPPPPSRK

Columns and labels:
[1] = biological target: T1, ZRF1 (endogenous) (human (endogenous in HEK293T)) (UniProt Q99543); assay: co-IP; IP with a ZRF1 antibody of endogenous ZRF1 from HEK293T cells, immunoblot for FMRP, FXR1, FXR2; IgG as negative control
T1 sequence: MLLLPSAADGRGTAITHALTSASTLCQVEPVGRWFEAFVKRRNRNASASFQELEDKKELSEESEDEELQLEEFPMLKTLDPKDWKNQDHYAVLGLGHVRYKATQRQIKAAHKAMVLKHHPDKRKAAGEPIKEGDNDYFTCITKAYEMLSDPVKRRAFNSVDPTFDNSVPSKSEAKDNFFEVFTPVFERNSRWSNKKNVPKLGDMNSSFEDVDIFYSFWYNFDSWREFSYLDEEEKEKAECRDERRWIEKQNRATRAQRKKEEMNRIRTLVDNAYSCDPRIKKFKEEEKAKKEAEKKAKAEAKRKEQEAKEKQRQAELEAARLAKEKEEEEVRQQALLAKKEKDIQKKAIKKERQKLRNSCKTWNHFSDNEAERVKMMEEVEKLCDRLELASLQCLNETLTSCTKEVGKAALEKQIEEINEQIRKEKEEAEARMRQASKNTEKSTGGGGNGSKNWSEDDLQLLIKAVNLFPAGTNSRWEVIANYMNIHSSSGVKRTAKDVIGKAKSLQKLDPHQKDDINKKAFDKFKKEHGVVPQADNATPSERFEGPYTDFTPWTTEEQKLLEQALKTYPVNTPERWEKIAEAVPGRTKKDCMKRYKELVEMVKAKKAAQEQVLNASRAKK

[2] = biological target: T2, FLAG-ZRF1 (human) (UniProt Q99543); assay: co-IP; HEK293T cells, transfected; FLAG-tagged protein as bait, tagged partner detected by immunoblot
T2 sequence: T1 sequence

[3] = biological target: FLAG-AGO1 (UniProt Q9UL18); assay: as above
[4] = biological target: T3, SERBP1-GFP (human) (UniProt Q8NC51); assay: co-IP; HEK293T cells, transfected; reciprocal IP by the GFP-tagged partner, FLAG-ZRF1 detected
T3 sequence: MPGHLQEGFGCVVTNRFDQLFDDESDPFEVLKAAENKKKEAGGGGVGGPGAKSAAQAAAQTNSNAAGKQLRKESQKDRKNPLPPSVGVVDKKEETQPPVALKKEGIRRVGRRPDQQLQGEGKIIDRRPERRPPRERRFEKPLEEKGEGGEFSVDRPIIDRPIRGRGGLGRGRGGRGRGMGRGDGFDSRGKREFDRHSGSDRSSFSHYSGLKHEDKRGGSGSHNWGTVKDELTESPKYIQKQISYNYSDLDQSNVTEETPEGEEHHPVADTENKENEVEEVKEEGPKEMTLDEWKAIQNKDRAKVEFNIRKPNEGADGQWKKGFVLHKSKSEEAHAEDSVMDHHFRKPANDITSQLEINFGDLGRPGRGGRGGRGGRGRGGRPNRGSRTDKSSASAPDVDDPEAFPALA

Molecule: DDX5-GFP (from UniProt P17844 1-614)
binding [2]: binds

Molecule: FXR1 (endogenous) (from UniProt P51114 1-621)
binding [1]: binds

B1: ZRF1-GFP (protein, UniProt Q99543 1-621)
chain: T1 sequence
binding [3]: binds

B2: FLAG-ZRF1 (protein, UniProt Q99543 1-621)
chain: T1 sequence
binding [4]: binds

Continued, values first:

binding [1]: binds
Molecule: FXR2 (endogenous) (from UniProt P51116 1-673)

binding [2]: binds
Molecule: DDX17-Myc (from UniProt Q92841 1-729)

binding [2]: binds
B3: DDX21-V5 (protein, UniProt Q9NR30 1-783)
chain: MPGKLRSDAGLESDTAMKKGETLRKQTEEKEKKEKPKSDKTEEIAEEEETVFPKAKQVKKKAEPSEVDMNSPKSKKAKKKEEPSQNDISPKTKSLRKKKEPIEKKVVSSKTKKVTKNEEPSEEEIDAPKPKKMKKEKEMNGETREKSPKLKNGFPHPEPDCNPSEAASEESNSEIEQEIPVEQKEGAFSNFPISEETIKLLKGRGVTFLFPIQAKTFHHVYSGKDLIAQARTGTGKTFSFAIPLIEKLHGELQDRKRGRAPQVLVLAPTRELANQVSKDFSDITKKLSVACFYGGTPYGGQFERMRNGIDILVGTPGRIKDHIQNGKLDLTKLKHVVLDEVDQMLDMGFADQVEEILSVAYKKDSEDNPQTLLFSATCPHWVFNVAKKYMKSTYEQVDLIGKKTQKTAITVEHLAIKCHWTQRAAVIGDVIRVYSGHQGRTIIFCETKKEAQELSQNSAIKQDAQSLHGDIPQKQREITLKGFRNGSFGVLVATNVAARGLDIPEVDLVIQSSPPKDVESYIHRSGRTGRAGRTGVCICFYQHKEEYQLVQVEQKAGIKFKRIGVPSATEIIKASSKDAIRLLDSVPPTAISHFKQSAEKLIEEKGAVEALAAALAHISGATSVDQRSLINSNVGFVTMILQCSIEMPNISYAWKELKEQLGEEIDSKVKGMVFLKGKLGVCFDVPTASVTEIQEKWHDSRRWQLSVATEQPELEGPREGYGGFRGQREGSRGFRGQRDGNRRFRGQREGSRGPRGQRSGGGNKSNRSQNKGQKRSFSKAFGQ
